Measurements reported in article PMC9920513.
A negative result means that nothing was seen under these conditions.

Amino acid sequences for entries named in this document (tags omitted). Residues count along the entry.
UniProt P02769, 25-607: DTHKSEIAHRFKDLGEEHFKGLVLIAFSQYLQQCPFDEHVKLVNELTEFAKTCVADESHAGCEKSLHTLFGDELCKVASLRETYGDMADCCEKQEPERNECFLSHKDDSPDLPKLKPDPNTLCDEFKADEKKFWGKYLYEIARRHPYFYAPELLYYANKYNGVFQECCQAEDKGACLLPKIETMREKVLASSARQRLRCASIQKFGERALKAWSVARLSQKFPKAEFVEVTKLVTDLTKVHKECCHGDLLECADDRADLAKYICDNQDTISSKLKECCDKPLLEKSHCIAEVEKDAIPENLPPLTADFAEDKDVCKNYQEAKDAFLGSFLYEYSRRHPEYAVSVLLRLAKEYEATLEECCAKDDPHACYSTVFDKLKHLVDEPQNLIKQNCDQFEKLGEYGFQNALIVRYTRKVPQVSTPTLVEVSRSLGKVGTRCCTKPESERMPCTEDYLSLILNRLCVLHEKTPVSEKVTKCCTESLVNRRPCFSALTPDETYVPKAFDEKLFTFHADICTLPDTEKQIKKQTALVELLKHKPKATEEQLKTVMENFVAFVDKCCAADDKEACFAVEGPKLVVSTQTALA

Tests used:
[1] = biological target: HSA (UniProt P02768); experiment: fluorescent aptamer sensor (amplified, indirect); conditions: 1 ng/mL, primer-3, KF, Nb.BbvCI, MB, Mg2+, 100 nM H probe, 100 nM primer-3, 5 U KF, 5 U Nb.BbvCI, 25 uM dNTPs, 37 C 60 min, then HEPES detection buffer with 300 nM MB and 20 mM Mg2+, pH and salt not given, folded or branched DNA
[2] = biological target: BSA (UniProt P02769); experiment: fluorescent aptamer sensor (amplified, indirect); conditions: 1 ng/mL, primer-3, KF, Nb.BbvCI, MB, Mg2+, 100 nM H probe, 100 nM primer-3, 5 U KF, 5 U Nb.BbvCI, 25 uM dNTPs, 37 C 60 min, then HEPES detection buffer with 300 nM MB and 20 mM Mg2+, pH and salt not given, folded or branched DNA

ATGCTTGGTACATGGGTGATCGCTGTCGGTATTCCTCAGCCAATACCAGCTTATTCAATTCCAGCTCCTCAGCGTATACTGGAATTGAATC [H probe (CEA aptamer hairpin)]
binding result [1]: no binding | binding result [2]: no binding
